{
  "source": "patent US12576018B2",
  "about": "“Active agents for skin and hair care with sensory modifying properties” (SYMRISE AG, priority 2019, dated 2026)",
  "test_system": "skin",
  "assay": "Sensory assessment of 3-hydroxypropyl caprylate in o/w emulsion on forearm",
  "type": "in vivo, human",
  "settings": "1 wt.-% in o/w emulsion vs formulation A1",
  "data": [
    {"smiles": "CCCCCCCC(=O)OCCCO", "note": "[3-hydroxypropyl caprylate]", "values": [
      {"measurement": "Absorption versus placebo (in words)", "result": "better absorption"},
      {"measurement": "Soaping of the formulation versus placebo (in words)", "result": "less soaping"}
    ]}
  ]
}
